# Patent US20100273205A1, “Magnetic resonance imaging contrast agents” (priority 2005, published 2010)
# Test system: formalin-fixed visual cortex (gray and white matter)
# Assay: LFB relaxation enhancement, inversion-recovery spin-echo and multi-echo spin-echo MR at 14T
# Set-up: species or system human
# Description: Formalin-fixed samples of visual cortex, approximately 1 cm in thickness, were immersed in a mixture of LFB dissolved in a solvent of 95% ethanol (500 mg LFB in 50 ml ethanol) for durations between 48 hours and 3 months. Following LFB staining, the tissue was rinsed in 70% ethanol, rinsed in distilled water, and then immersed in an aqueous solution of lithium carbonate(Li2CO3) (0.25 g Li2CO3 in 500 mL water) until gray-white matter contrast had increased, ranging between approximately 5 minutes and 24 hours. Next, the tissue was rinsed twice more in 70% ethanol and lastly in distilled water. Additional control samples were prepared with 1) formalin only or 2) 95% ethanol followed by immersion in Li2CO3.
# Tissue samples were blotted and then immersed in perfluoropolyether (Fomblin, Ausimont USA, Thorofare, N.J.) in a low-pressure environment. […] The low-pressure environment is used to remove artifact-inducing air bubbles from within the tissue.
# Data was acquired using a 10 mm birdcage coil in a vertical bore 14T magnet (Magnex Scientific, Oxford, England), with an 89-mm bore and 100 G/cm gradient coil. An inversion-recovery prepared spin-echo sequence and a multi-echo spin-echo sequence were used to determine T1 and T2, respectively. Parameters were estimated in three regions of interest (ROIs), outer gray matter (GMo), inner gray matter (GMi), and white matter (WM), using a nonlinear least-squares fitting routine using the following equations, a:
# SIIR−SE=Mo(1−2αe^−TIIT^1)SISE∝Moe^−TEIT^2
# where α represents flip angle deviation from 180° and Mo is the equilibrium magnetization.
# [1] = 14T, ex vivo visual cortex, non-linear least squares fit
substance,measurement,setting,value
Luxol fast blue [LFB],penetration of dye into tissue,"1 cm-thick slab of visual cortex, FIGS. 3A-C",penetrated deeply enough to change the relaxation times of the interior white matter
same,"T1, longitudinal relaxation value of gray matter (GM)",[1],519.5 ms
same,"T1, longitudinal relaxation value of white matter (WM)",[1],297.7 ms
